{"sequences": {"note": "The chains behind the UniProt entries cited, without tags or fusion partners. Where a name states a change or a piece, a line headed by the entry shows the natural chain unless it says otherwise.", "UniProt P53350": "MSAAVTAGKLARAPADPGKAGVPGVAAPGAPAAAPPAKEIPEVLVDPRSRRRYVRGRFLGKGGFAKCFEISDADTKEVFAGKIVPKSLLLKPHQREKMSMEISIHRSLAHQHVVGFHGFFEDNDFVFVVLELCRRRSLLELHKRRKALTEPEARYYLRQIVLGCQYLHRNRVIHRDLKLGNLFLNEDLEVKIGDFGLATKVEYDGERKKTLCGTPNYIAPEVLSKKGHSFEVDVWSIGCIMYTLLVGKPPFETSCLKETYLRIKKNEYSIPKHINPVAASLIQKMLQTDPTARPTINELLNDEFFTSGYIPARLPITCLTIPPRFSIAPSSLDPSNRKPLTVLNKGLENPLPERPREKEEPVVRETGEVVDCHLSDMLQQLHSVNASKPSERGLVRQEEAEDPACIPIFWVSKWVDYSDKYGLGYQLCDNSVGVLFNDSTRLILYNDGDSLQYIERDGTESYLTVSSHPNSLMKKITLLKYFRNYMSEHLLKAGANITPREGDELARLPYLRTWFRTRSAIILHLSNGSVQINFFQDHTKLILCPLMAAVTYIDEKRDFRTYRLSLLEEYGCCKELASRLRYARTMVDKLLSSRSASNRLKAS", "UniProt Q07832": "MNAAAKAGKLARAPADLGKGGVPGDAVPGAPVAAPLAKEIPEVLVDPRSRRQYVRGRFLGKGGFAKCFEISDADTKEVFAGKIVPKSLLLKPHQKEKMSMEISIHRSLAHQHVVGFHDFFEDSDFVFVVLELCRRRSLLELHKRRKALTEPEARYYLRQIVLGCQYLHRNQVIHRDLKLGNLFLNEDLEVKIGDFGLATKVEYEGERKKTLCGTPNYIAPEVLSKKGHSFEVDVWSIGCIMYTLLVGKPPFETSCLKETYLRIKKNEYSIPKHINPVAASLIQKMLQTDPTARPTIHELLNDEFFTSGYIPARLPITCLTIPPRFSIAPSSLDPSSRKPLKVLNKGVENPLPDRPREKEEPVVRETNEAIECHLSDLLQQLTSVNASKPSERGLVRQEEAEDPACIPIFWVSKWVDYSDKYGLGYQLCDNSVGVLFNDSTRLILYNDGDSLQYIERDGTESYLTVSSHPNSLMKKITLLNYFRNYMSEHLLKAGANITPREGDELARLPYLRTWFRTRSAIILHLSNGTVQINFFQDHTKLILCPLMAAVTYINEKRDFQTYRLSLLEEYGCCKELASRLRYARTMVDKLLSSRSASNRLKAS"}, "source": "paper PMC10722681", "about": "“RGCC-mediated PLK1 activity drives breast cancer lung metastasis by phosphorylating AMPKα2 to activate oxidative phosphorylation and fatty acid oxidation” (Journal of Experimental & Clinical Cancer Research : CR, 2023)", "key": {"HA-RGCC": {"molecular_target": "T1, HA-RGCC (UniProt Q9H4X1)", "T1 sequence": "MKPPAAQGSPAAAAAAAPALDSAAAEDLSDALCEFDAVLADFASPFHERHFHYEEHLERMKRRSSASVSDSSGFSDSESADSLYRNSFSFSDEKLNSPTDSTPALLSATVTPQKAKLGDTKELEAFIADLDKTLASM", "experiment": "co-IP; HA-RGCC and FLAG-PLK1 truncation fragments in 293T cells"}, "[1]": {"molecular_target": "T2, Response gene to complement 32 protein (RGCC) (human (endogenous in MDA-MB-231/LM3)) (UniProt Q9H4X1)", "T2 sequence": "T1 sequence", "experiment": "co-IP; endogenous proteins; NP40 lysate; magnetic protein A/G beads; anti-RGCC or anti-PLK1 for precipitation; western blot"}, "GST-RGCC": {"molecular_target": "T3, GST-RGCC (UniProt Q9H4X1)", "T3 sequence": "T1 sequence", "experiment": "pull-down; purified GST-RGCC (or GST) incubated with recombinant HA-PLK1 4 h at 4 °C, then glutathione-Sepharose 4B beads 2 h at 4 °C; washed in NP-40 buffer (50 mM Tris-HCl pH 7.4, 1% NP-40, 150 mM NaCl, 2 mM EDTA, 1 mM DTT, 10% glycerol); western blot; both purified"}, "[2]": {"molecular_target": "T4, RGCC (4T1/LM3 cells) (mouse (endogenous in 4T1/LM3)) (UniProt Q9DBX1)", "T4 sequence": "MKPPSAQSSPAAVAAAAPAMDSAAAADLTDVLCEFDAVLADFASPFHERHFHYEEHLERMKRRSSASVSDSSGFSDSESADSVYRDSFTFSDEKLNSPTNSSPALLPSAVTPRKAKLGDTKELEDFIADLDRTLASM", "experiment": "co-IP; endogenous proteins; NP40 lysate; magnetic protein A/G beads; anti-RGCC or anti-PLK1 for precipitation; western blot"}}, "note": "Results are given in words; binding and its absence hold for the method and conditions named. For some of these results: In cells and extracts the contact can be indirect. Some binding calls cover weakened binding; strength is not graded here. For some of these results: Where a sequence is shown, tags or fusion partners need not be part of it."}
{"substance": "FLAG-PLK1 (491–603) (from UniProt P53350 491-603) (domain or fragment)", "values": [{"measurement": "binding", "setting": "HA-RGCC", "value": "binds weakly"}]}
{"substance": "PLK1 (from UniProt P53350 1-603)", "values": [{"measurement": "binding", "setting": "[1]", "value": "binds"}]}
{"substance": "HA-PLK1 (from UniProt P53350 1-603)", "values": [{"measurement": "binding", "setting": "GST-RGCC", "value": "binds"}]}
{"substance": "PLK1 (4T1/LM3 cells) (from UniProt Q07832 1-603)", "values": [{"measurement": "binding", "setting": "[2]", "value": "binds"}]}
{"substance": "FLAG-PLK1 (341–490) (from UniProt P53350 341-490) (domain or fragment)", "values": [{"measurement": "binding", "setting": "HA-RGCC", "value": "binds"}]}
{"substance": "FLAG-PLK1 (231–340) (from UniProt P53350 231-340) (domain or fragment)", "values": [{"measurement": "binding", "setting": "HA-RGCC", "value": "binds weakly"}]}
{"substance": "FLAG-PLK1 (1–190) (from UniProt P53350 1-190) (domain or fragment)", "values": [{"measurement": "binding", "setting": "HA-RGCC", "value": "binds"}]}
